Assay results taken from the supplement of paper PMC10849652.
Some of the results follow.

By UniProt entry, the sequences of proteins in these tests, tags left out. Where a name states a change or a piece, a line headed by the entry shows the natural chain unless it says otherwise.
UniProt Q10713: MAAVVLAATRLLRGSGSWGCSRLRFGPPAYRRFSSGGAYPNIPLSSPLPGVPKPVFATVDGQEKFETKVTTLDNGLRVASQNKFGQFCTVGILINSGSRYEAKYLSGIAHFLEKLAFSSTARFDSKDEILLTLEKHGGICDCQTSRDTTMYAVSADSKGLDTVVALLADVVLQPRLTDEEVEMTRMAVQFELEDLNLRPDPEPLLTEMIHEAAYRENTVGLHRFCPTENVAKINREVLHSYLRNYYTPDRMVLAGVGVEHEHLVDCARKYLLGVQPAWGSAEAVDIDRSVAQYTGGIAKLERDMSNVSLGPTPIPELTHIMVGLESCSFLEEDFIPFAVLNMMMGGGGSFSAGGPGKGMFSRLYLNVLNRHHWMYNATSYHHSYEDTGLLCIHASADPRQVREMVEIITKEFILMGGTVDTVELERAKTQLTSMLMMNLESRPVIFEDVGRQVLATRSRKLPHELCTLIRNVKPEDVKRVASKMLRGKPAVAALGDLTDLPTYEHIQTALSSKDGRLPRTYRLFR
UniProt Q07864, whole entry, looked up: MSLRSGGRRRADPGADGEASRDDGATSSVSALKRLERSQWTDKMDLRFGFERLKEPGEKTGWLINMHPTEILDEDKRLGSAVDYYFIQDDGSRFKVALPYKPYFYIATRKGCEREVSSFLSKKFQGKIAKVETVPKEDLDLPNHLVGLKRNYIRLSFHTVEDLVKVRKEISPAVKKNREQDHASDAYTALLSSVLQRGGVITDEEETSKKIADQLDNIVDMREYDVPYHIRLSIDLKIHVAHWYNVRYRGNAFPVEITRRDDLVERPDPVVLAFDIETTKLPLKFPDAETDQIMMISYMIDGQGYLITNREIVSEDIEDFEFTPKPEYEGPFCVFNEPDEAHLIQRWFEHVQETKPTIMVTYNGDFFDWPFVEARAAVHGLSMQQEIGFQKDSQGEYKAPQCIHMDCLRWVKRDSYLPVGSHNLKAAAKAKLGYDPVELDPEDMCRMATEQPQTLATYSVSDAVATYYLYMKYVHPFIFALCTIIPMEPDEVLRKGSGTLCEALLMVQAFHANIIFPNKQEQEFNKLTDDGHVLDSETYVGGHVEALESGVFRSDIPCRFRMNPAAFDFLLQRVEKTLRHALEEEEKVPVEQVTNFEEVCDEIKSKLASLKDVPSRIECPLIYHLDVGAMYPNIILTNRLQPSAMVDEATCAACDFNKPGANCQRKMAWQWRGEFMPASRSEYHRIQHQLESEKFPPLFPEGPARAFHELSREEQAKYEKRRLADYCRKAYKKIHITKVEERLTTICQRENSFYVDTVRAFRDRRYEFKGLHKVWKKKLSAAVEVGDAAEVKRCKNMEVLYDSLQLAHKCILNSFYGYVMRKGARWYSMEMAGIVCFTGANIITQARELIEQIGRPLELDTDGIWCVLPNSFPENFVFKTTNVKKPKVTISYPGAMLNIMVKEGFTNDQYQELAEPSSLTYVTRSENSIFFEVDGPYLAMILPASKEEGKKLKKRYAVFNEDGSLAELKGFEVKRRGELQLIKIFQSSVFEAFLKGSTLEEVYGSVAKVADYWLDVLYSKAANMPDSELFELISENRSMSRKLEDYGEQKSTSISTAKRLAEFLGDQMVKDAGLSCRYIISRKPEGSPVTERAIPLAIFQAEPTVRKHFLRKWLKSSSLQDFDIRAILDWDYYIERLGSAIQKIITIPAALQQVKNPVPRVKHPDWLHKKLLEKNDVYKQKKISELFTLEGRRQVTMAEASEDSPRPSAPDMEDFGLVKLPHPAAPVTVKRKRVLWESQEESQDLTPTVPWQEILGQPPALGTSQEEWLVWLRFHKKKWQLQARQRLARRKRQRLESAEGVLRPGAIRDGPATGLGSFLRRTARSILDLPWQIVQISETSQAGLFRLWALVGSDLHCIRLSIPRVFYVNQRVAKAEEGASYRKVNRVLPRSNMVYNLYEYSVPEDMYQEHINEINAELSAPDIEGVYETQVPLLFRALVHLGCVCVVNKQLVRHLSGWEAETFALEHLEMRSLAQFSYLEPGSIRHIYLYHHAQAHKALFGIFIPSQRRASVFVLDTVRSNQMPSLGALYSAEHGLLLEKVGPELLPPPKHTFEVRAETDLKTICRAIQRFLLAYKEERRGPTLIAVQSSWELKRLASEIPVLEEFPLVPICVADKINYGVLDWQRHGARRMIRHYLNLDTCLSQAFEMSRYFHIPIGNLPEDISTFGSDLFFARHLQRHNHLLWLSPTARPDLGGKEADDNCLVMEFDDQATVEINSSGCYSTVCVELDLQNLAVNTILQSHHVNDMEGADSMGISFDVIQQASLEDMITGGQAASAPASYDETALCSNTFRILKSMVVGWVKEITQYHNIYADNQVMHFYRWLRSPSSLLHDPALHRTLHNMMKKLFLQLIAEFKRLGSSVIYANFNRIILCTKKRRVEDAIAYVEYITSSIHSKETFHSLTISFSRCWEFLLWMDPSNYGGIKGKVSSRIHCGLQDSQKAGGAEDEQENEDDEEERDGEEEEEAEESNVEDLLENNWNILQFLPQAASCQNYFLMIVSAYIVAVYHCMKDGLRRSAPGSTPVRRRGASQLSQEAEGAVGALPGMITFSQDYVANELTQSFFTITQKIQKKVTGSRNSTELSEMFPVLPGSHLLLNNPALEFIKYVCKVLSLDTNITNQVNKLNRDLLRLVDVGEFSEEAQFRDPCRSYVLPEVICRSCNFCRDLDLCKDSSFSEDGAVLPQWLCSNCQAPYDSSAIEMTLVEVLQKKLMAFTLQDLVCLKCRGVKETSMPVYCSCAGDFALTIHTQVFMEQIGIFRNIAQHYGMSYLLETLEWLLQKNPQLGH
UniProt Q9H2U2: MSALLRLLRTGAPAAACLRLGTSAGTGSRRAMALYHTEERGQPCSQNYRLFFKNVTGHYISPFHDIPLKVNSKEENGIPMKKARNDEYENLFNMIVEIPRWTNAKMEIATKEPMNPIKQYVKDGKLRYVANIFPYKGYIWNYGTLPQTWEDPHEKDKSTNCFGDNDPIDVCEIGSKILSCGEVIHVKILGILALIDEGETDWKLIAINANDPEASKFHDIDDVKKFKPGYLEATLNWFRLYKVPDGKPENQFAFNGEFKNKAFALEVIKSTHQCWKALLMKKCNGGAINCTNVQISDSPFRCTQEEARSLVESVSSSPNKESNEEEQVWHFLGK
UniProt O14802: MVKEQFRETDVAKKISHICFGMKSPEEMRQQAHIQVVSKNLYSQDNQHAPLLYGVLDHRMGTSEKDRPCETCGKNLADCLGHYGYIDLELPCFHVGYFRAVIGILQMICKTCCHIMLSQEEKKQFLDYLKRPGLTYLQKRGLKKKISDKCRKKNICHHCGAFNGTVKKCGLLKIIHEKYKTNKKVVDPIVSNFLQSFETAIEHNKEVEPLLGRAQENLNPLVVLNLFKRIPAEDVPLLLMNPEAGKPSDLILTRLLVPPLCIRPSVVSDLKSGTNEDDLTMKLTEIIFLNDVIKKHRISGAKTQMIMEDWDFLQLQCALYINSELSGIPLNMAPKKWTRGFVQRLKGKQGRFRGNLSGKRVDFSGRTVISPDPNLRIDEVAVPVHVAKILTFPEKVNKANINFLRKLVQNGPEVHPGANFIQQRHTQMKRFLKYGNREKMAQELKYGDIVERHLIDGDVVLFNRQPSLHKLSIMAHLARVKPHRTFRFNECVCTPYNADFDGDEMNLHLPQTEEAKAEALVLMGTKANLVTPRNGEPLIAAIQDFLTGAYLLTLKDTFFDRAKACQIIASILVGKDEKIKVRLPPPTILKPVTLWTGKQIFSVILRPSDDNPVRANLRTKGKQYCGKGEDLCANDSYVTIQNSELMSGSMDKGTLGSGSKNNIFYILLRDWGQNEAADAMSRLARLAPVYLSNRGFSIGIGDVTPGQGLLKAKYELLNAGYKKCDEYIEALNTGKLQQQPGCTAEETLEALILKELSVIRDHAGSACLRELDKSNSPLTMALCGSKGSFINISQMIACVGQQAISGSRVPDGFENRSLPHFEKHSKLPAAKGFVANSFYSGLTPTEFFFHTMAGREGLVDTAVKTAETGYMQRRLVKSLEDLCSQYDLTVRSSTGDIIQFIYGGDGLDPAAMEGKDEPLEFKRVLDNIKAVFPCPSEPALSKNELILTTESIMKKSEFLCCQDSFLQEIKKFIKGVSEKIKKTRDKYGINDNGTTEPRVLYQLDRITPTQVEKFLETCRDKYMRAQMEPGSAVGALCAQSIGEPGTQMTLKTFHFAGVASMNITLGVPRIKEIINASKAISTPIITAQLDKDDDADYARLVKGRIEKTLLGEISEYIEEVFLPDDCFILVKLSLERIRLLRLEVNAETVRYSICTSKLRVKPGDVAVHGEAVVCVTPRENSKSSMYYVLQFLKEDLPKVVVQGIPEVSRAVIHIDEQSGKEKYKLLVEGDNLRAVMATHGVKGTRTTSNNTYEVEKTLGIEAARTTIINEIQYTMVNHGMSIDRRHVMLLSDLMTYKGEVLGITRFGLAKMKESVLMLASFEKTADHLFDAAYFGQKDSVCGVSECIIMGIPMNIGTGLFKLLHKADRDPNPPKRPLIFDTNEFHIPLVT

Key:
Test in all cases: log2 fold change, soluble protein after heating vs DMSO (PISA); higher = thermal stabilisation; K562 lysate, 10 uM; active = over 0.2 and 3.5 SD of the protein, either way, in both replicates (recomputed)
nilotinib = compound: Cc1cn(-c2cc(NC(=O)c3ccc(C)c(Nc4nccc(-c5cccnc5)n4)c3)cc(C(F)(F)F)c2)cn1 [nilotinib]
In short: (§1)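 Following dounce homogenisation of K562 pellets in PBS pH 7.4 with 1 mM MgCl2, crude extract at 1 mg/mL protein was incubated for 30 min with 10 μM compound. Aliquots were then heated for 3 min over 48°C-58°C and pooled, NP-40 was added to 0.5% at 4°C, and soluble protein was recovered as the supernatant at 21,000xg for 90 min. Channel-sum-equalised TMTpro 16plex LC-MS/MS quantified this protein. Each value, from duplicates, is a log-two fold change in thermal stability relative to solvent controls.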

[1] = compound: Cc1nc(Nc2n[nH]c3c2CN(C(=O)N[C@H](CN(C)C)c2ccccc2)C3(C)C)c2sccc2n1
In short: as §1

dasatinib = compound: Cc1nc(Nc2ncc(C(=O)Nc3c(C)cccc3Cl)s2)cc(N2CCN(CCO)CC2)n1 [dasatinib]
In short: as §1

[2] = compound: Cc1ncc(-c2ccnc(Nc3ccc(S(C)(=O)=O)cc3)n2)n1C(C)C
In short: as §1

[3] = compound: Cn1cc(-c2ccc3c(c2)CCN3C(=O)Cc2cccc(C(F)(F)F)c2)c2c(N)ncnc21
In short: as §1

quisinostat = compound: Cn1cc(CNCC2CCN(c3ncc(C(=O)NO)cn3)CC2)c2ccccc21 [quisinostat]
In short: as §1

tipifarnib = compound: Cn1cncc1[C@@](N)(c1ccc(Cl)cc1)c1ccc2c(c1)c(-c1cccc(Cl)c1)cc(=O)n2C [tipifarnib]
In short: as §1

[4] = compound: NC(=O)Nc1cc(-c2cccc(F)c2)sc1C(=O)N[C@H]1CCCNC1
In short: as §1

[5] = compound: NC(=O)c1cnc(N[C@@H]2CCCC[C@@H]2N)nc1Nc1cccc(-n2nccn2)c1
In short: as §1

[6] = compound: NC1(c2ccc(-c3nc4ccn5c(=O)[nH]nc5c4cc3-c3ccccc3)cc2)CCC1
In short: as §1

[7] = compound: NCC(=O)Nc1ccc(-n2nc(C(F)(F)F)cc2-c2ccc3c(ccc4ccccc43)c2)cc1
In short: as §1

vorinostat = compound: O=C(CCCCCCC(=O)Nc1ccccc1)NO [vorinostat]
In short: as §1

silmitasertib = compound: O=C(O)c1ccc2c(c1)nc(Nc1cccc(Cl)c1)c1ccncc12 [silmitasertib]
In short: as §1

[8] = compound: O=C1NC(=O)C(c2cnc3ccccn23)=C1c1cn2c3c(cc(F)cc13)CN(C(=O)N1CCCCC1)CC2
In short: as §1

entospletinib = compound: c1cn2cc(-c3ccc4cn[nH]c4c3)nc(Nc3ccc(N4CCOCC4)cc3)c2n1 [entospletinib]
In short: as §1

PMPCA (UniProt Q10713)
log2 fold change (nilotinib): inactive: 0.005 | log2 fold change [1]: inactive: 0.052 | log2 fold change (dasatinib): active: 0.672 | log2 fold change [2]: inactive: 0 | log2 fold change [3]: inactive: -0.017 | log2 fold change (quisinostat): inactive: -0.041 | log2 fold change (tipifarnib): inactive: 0.187 | log2 fold change [4]: inactive: -0.013 | log2 fold change [5]: inactive: -0.009 | log2 fold change [6]: inactive: 0.003 | log2 fold change [7]: inactive: 0.031 | log2 fold change (vorinostat): inactive: 0.033 | log2 fold change (silmitasertib): inactive: -0.044 | log2 fold change [8]: inactive: 0.003 | log2 fold change (entospletinib): inactive: -0.019

POLE (UniProt Q07864)
log2 fold change (nilotinib): inactive: 0.022 | log2 fold change [1]: inactive: 0.015 | log2 fold change (dasatinib): inactive: -0.054 | log2 fold change [2]: inactive: -0.002 | log2 fold change [3]: inactive: 0.053 | log2 fold change (quisinostat): inactive: 0.004 | log2 fold change (tipifarnib): inactive: 0.003 | log2 fold change [4]: inactive: 0.054 | log2 fold change [5]: inactive: -0.04 | log2 fold change [6]: inactive: -0.031 | log2 fold change [7]: inactive: -0.006 | log2 fold change (vorinostat): inactive: -0.183 | log2 fold change (silmitasertib): inactive: 0.051 | log2 fold change [8]: inactive: 0.003 | log2 fold change (entospletinib): inactive: 0.009

PPA2 (UniProt Q9H2U2)
log2 fold change (nilotinib): inactive: 0.017 | log2 fold change [1]: inactive: -0.033 | log2 fold change (dasatinib): inactive: 0.012 | log2 fold change [2]: inactive: -0.107 | log2 fold change [3]: inactive: -0.018 | log2 fold change (quisinostat): inactive: 0.003 | log2 fold change (tipifarnib): inactive: -0.027 | log2 fold change [4]: inactive: 0.003 | log2 fold change [5]: inactive: -0.011 | log2 fold change [6]: inactive: -0.004 | log2 fold change [7]: inactive: 0.004 | log2 fold change (vorinostat): inactive: -0.03 | log2 fold change (silmitasertib): inactive: -0.013 | log2 fold change [8]: inactive: 0.019 | log2 fold change (entospletinib): inactive: 0.014

POLR3A (UniProt O14802)
log2 fold change (nilotinib): inactive: 0.003 | log2 fold change [1]: inactive: 0.001 | log2 fold change (dasatinib): inactive: 0.002 | log2 fold change [2]: inactive: -0.009 | log2 fold change [3]: inactive: 0.013 | log2 fold change (quisinostat): inactive: 0.004 | log2 fold change (tipifarnib): inactive: 0.004 | log2 fold change [4]: inactive: 0.016 | log2 fold change [5]: inactive: 0.01 | log2 fold change [6]: inactive: -0.003 | log2 fold change [7]: inactive: 0.003 | log2 fold change (vorinostat): inactive: -0.169 | log2 fold change (silmitasertib): inactive: 0.019 | log2 fold change [8]: inactive: -0.012 | log2 fold change (entospletinib): inactive: -0.033
